Literature values, collected in patent publication US20260240826A1, “COMPOSITIONS FOR PD-L1 INHIBITION AND METHODS OF USE THEREOF” (ARIZONA BOARD OF REGENTS ON BEHALF OF THE UNIVERSITY OF …, priority 2023, published 2026).
At least one compound was matched to its structure with a doubt left.

Conditions: cited from earlier work

For COc1nc(OCc2cccc(-c3ccccc3)c2C)ccc1CNCCNC(C)=O [BMS-202], the cellular toxicity is given as “lack of cellular toxicity”.
